Test results reported in US8309721B2, “HSP90 inhibitory carbazole derivatives, compositions containing same and use thereof” (Sanofi, priority 2008, dated 2012).

Sequences of proteins named here, by UniProt entry; tags and fusion partners are left off.
UniProt P02829, whole entry: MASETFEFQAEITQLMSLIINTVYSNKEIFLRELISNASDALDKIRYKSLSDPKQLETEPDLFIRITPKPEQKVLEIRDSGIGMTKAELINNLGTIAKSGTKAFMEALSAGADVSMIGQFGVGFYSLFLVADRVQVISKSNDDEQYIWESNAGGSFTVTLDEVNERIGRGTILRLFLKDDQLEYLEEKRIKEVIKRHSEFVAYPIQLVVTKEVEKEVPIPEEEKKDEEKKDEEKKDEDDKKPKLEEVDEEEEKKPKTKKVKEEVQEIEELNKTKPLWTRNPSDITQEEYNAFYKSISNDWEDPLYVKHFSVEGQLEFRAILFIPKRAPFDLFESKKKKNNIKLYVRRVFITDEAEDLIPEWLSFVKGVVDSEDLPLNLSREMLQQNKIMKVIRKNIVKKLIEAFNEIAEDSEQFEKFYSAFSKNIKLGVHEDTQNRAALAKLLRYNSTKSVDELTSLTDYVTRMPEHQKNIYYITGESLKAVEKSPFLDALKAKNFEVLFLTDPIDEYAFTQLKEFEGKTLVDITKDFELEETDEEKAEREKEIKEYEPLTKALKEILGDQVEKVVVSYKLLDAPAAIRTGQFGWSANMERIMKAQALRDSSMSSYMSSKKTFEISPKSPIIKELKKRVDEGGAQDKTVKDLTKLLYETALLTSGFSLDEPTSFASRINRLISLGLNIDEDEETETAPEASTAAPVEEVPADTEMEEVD

Tests used:
Hsp82 = Hsp82 (Saccharomyces cerevisiae, UniProt P02829); experiment: Hsp82/ATPase test (malachite green or PK/LDH coupled method); format: biochemical; conditions: read-out: Hsp82 ATPase IC50 μM; 1 μM Hsp82, 250 μM ATP, 37° C.
Description: The biochemical activity of the compounds can in particular be evaluated by means of the “Hsp82/ATPase” test described below: The inorganic phosphate released during the hydrolysis of ATP by the ATPase activity of Hsp82 is quantified by the malachite green method. In the presence of this reagent, formation of the inorganic phosphate-molybdate-malachite green complex, which absorbs at a wavelength of 620 nm, occurs. The products to be evaluated are incubated in a reaction volume of 30 μl, in the presence of 1 μM Hsp82 and of 250 μM of substrate (ATP) in a buffer composed of 50 mM Hepes-NaOH (pH 7.5), 1 mM DTT, 5 mM MgCl2 and 50 mM KCl at 37° C. for 60 min. In parallel, an inorganic phosphate range of between 1 and 40 μM is made up in the same buffer. […] After incubation at ambient temperature for 20 min, the absorbance of the various wells is measured using a microplate reader at 620 nm. The inorganic phosphate concentration of each sample is then calculated from the standard curve. The ATPase activity of Hsp82 is expressed as concentration of inorganic phosphate produced in 60 minutes. The effect of the various products tested is expressed as percentage inhibition of the ATPase activity. […] In this case, the decrease in the NADH concentration, measured through the decrease in absorbance at the wavelength of 340 nm, is proportional to the concentration of ADP produced by Hsp82. […]

[1] = test system: Her2 receptor expression at the surface of SKBr3 cells; experiment: phenotypic SKBr3/HER2 cell test (Her2 surface expression by flow cytometry); conditions: read-out: SKBR3 HER2 IC50 μM, 24 h incubation, inhibition of Her2 expression
Description: The cellular activity of the compounds can in particular be evaluated by means of the phenotypic “SKBr3/HER2” cell test described below:
The SKBr3 […] adenocarcinoma cells, overexpressing the Her2 tyrosine kinase receptor, originate from the ATCC (HTB-30) and are cultured in McCoy's 5A medium supplemented with 10% FBS and 1% L-glutamine.
The cells are seeded in 12-well plates at a proportion of 125 000 cells per well in 1 ml of complete medium. The following day, the products are added at varying concentrations. After incubation for 24 h, the cells are trypsinized, washed with PBS and incubated with 100 ng of anti-Her2 antibody coupled to PE (Phycoerythrin) (BD 340552) for 30 minutes at 4° C. in the dark. The fluorescence due to the expression of the Her2 receptor at the surface of the cells is then read using a FACS Calibur flow cytometer (Becton-Dickinson). The percentage inhibition of Her2 expression as a function of the concentrations of product tested is fitted by the nonlinear regression technique (XLfit, equation 205) in order to measure an IC50 for each product.

CC(CO)CCNc1cc(-n2c3ccccc3c3c(-c4cnc5ccccc5c4)cccc32)ccc1C(N)=O (racemic) was tested, and the IC50 (Hsp82) was < 1 µM and the IC50 [1] was < 1 µM.

Structures were worked out from names or drawings and are uncertain.
